The supplement of paper PMC3334620
The full ranking holds about 33,000 sequences; the median of “E-score (-0.5 to 0.5)” is about -0.0014, and the highest 2% start at about 0.25. Some of the results follow.

biological target: T1, Cad1 (UniProt P24813); experiment: PBM E-score (8-mer binding enrichment) (E-score (-0.5 to 0.5)); higher = stronger / more preferred TF binding; settings: protein concentration: 100 nM; construct: GST-full length
T1 sequence: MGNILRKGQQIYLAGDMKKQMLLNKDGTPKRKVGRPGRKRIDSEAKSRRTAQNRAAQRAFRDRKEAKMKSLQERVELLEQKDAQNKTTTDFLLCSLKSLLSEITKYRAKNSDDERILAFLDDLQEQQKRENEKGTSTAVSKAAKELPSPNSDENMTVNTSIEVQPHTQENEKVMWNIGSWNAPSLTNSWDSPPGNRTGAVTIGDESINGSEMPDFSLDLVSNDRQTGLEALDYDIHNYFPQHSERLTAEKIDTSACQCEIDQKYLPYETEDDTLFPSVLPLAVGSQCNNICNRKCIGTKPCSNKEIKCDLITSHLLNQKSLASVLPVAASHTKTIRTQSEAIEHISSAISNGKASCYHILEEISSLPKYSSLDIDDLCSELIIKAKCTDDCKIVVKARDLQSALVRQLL
Method: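 Universal 'all 10-mer' protein binding microarrays (Agilent AMADID 015681) probed with GST-tagged S. cerevisiae TFs (full-length or DBD) made by in vitro transcription/translation (PURExpress), about 100-200 nM. Bound TF was detected with fluorescent anti-GST. Each ungapped 8-mer (which stands for itself and its reverse complement) is scored by the PBM enrichment score (E-score), a modified Wilcoxon-Mann-Whitney statistic from -0.5 to +0.5, computed with the Universal PBM Analysis Suite. Scale: above 0.35 generally sequence-specific binding.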

Sequence	PBM E-score
ATCGTATG	0.0145
CTATAAAA	0.0651
TAGACCGA	-0.0576
CCTCATTC	-0.0493
GCCTAATA	-0.00031
ATGCGTCA	0.115
TCCAGCGA	0.0183
AACAACTA	-0.0131
CACGGGCC	-0.223
GCTAGCCA	-0.183
CACGACTA	-0.148
CTCTATGC	-0.0435
GTTACCGA	-0.0191
TAGAACAA	0.0732
CGAGGAGC	-0.163
GCAACTAC	0.0469
CACAAACG	0.0911
CCGTGGAC	-0.189
CGGATTAA	0.133
CGCGTATA	-0.0201
GTCCGAAC	0.0452
AGGGGCAC	-0.146

Sequence	PBM E-score
CACTAGAA	-0.0573
CGAATTTC	0.17
CACCTCCG	-0.0133
ATCTAGCG	0.067
CCTTTGGC	-0.197
AGTGGACA	0.172
CGGGATAA	0.119
AGTTCAGG	-0.0196
CCACCGTA	0.0243
GAAGGCTC	-0.171
CTGACGCA	0.0845
AGGCTCTC	-0.153
CCCTAGTC	-0.219
AACTTATA	0.257
ATCAGCGG	0.0735
CAGCACGG	0.147
ACGAGTAG	-0.0551
CACATGAA	0.00698
ATAAGAAC	0.205
CTAAGAAC	0.076
TCTTCGAA	-0.00633
ATACCAAT	0.0289

Reformatted: entries from further up.
GCCTAATA
  PBM E-score = -0.00031
CGAATTTC
  PBM E-score = 0.17
CGGGATAA
  PBM E-score = 0.119
AACTTATA
  PBM E-score = 0.257

The list continues:

Sequence	PBM E-score
AATTTGCC	0.103
CTTCGACC	-0.0865
TATTCTCA	0.121
AAATACGG	0.105
GATTAGCC	0.135
CAATGCCG	0.0717
ACCATTAA	0.225
ATTCCTTA	0.0773
AACCCAGA	-0.0567
AACTAATG	0.283
CCTGAGCG	0.053
TACGTCAA	-0.0712
CAGTACTC	-0.139
CACACATA	-0.0274
AACGGTGT	0.0593
GCAGTGAA	0.233
CTGTGCAA	0.0576
CCGTGACC	-0.128
GAACCCTC	-0.185
GGTTCCGA	-0.00577
CATAGTAC	-0.0936
GTACCCAC	0.00331

Sequence	PBM E-score
CTTGTAGA	-0.19
CGAACTAG	0.0316
CGTCTATC	0.0782
CAGTTTCA	-0.222
GTTTGCTA	0.0823
CCACTATC	-0.0188
GTAACATA	0.0159
CTTCCGCC	-0.18
ATCATTGA	0.0624
ATGAGAGC	0.0615
GTATGACA	0.0705
AGGCACGC	-0.0443
TTAACGAA	0.145
GAACTTAA	0.116
AGAACGTG	0.113
AATAACAT	0.194
CTTATTGC	-0.105
AAGTATGT	-0.076
CAGGCGCA	0.00914
AACTTCGA	0.0752
